Data taken from the supplement of paper PMC4604168 (melanoma cell lines).
Some of the results follow. Single values are uncertain, as repeats are few or missing.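 Cells were imaged in 1,536-well plates, and nuclei stained with an antibody against cleaved PARP were counted against all DNA-stained nuclei to give the apoptosis fraction. Screening doses were chosen to leave most cells alive, and resting and induced cleaved-PARP levels differ strongly between cell lines.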

Each compound was assayed on SkMel30 (assay: cleaved PARP positive nuclei fraction relative to DMSO control; melanoma cells; higher = more apoptosis). Conditions: library dose: low library concentration; 72 h.

In order of rising “cleaved PARP positive nuclei fraction” value:
1. CO[C@H]1C[C@@H]2CC[C@@H](C)[C@@](O)(O2)C(=O)C(=O)N2CCCC[C@H]2C(=O)O[C@H]([C@H](C)C[C@@H]2CC[C@@H](OCCO)[C@H](OC)C2)CC(=O)[C@H](C)/C=C(\C)[C@@H](O)[C@@H](OC)C(=O)[C@H](C)C[C@H](C)/C=C/C=C/C=C/1C [everolimus] + Oc1nc(-c2ccc(C(F)(F)F)cc2)nc2c1CSCC2 [XAV939] (first compound 0.02 µM, partner dose 2 µM)  28.9%
2. CO[C@H]1C[C@@H]2CC[C@@H](C)[C@@](O)(O2)C(=O)C(=O)N2CCCC[C@H]2C(=O)O[C@H]([C@H](C)C[C@@H]2CC[C@@H](OCCO)[C@H](OC)C2)CC(=O)[C@H](C)/C=C(\C)[C@@H](O)[C@@H](OC)C(=O)[C@H](C)C[C@H](C)/C=C/C=C/C=C/1C [everolimus] + O=C(Nc1cccc(Cl)c1)Nc1ncc(CCNc2ncnc3ccsc23)s1 [SNS314] (first compound 0.02 µM, partner dose 0.0008 µM)  34.8%
3. CO[C@H]1C[C@@H]2CC[C@@H](C)[C@@](O)(O2)C(=O)C(=O)N2CCCC[C@H]2C(=O)O[C@H]([C@H](C)C[C@@H]2CC[C@@H](OCCO)[C@H](OC)C2)CC(=O)[C@H](C)/C=C(\C)[C@@H](O)[C@@H](OC)C(=O)[C@H](C)C[C@H](C)/C=C/C=C/C=C/1C [everolimus] + Nc1ncn([C@H]2C[C@H](O)[C@@H](CO)O2)c(=O)n1 [decitabine] (first compound 0.02 µM, partner dose 0.1 µM)  46.6%
4. CO[C@H]1C[C@@H]2CC[C@@H](C)[C@@](O)(O2)C(=O)C(=O)N2CCCC[C@H]2C(=O)O[C@H]([C@H](C)C[C@@H]2CC[C@@H](OCCO)[C@H](OC)C2)CC(=O)[C@H](C)/C=C(\C)[C@@H](O)[C@@H](OC)C(=O)[C@H](C)C[C@H](C)/C=C/C=C/C=C/1C [everolimus] + c1cc(-c2cnn3cc(-c4ccc(OCCN5CCCCC5)cc4)cnc23)ccn1 [Dorsomorphin] (first compound 0.02 µM, partner dose 0.4 µM)  52.7%
5. CO[C@H]1C[C@@H]2CC[C@@H](C)[C@@](O)(O2)C(=O)C(=O)N2CCCC[C@H]2C(=O)O[C@H]([C@H](C)C[C@@H]2CC[C@@H](OCCO)[C@H](OC)C2)CC(=O)[C@H](C)/C=C(\C)[C@@H](O)[C@@H](OC)C(=O)[C@H](C)C[C@H](C)/C=C/C=C/C=C/1C [everolimus] + Nc1cccc2c1CN(C1CCC(=O)NC1=O)C2=O [lenalidomide] (first compound 0.02 µM, partner dose 1 µM)  70.7%
6. CO[C@H]1C[C@@H]2CC[C@@H](C)[C@@](O)(O2)C(=O)C(=O)N2CCCC[C@H]2C(=O)O[C@H]([C@H](C)C[C@@H]2CC[C@@H](OCCO)[C@H](OC)C2)CC(=O)[C@H](C)/C=C(\C)[C@@H](O)[C@@H](OC)C(=O)[C@H](C)C[C@H](C)/C=C/C=C/C=C/1C [everolimus] + COc1ccc(COc2ccc(Cc3cnc(N)nc3N)cc2OC)cc1 [GW2580] (first compound 0.02 µM, partner dose 1 µM)  78.5%
7. CO[C@H]1C[C@@H]2CC[C@@H](C)[C@@](O)(O2)C(=O)C(=O)N2CCCC[C@H]2C(=O)O[C@H]([C@H](C)C[C@@H]2CC[C@@H](OCCO)[C@H](OC)C2)CC(=O)[C@H](C)/C=C(\C)[C@@H](O)[C@@H](OC)C(=O)[C@H](C)C[C@H](C)/C=C/C=C/C=C/1C [everolimus] + O=C(O)c1ccc(-c2c[nH]c3ncc(-c4ccccc4)cc23)cc1C1CCCC1 [GSK650394] (first compound 0.02 µM, partner dose 0.16 µM)  87.4%
8. Cn1c(=O)n(-c2ccc(C(C)(C)C#N)cc2)c2c3cc(-c4cnc5ccccc5c4)ccc3ncc21 + CO[C@H]1C[C@@H]2CC[C@@H](C)[C@@](O)(O2)C(=O)C(=O)N2CCCC[C@H]2C(=O)O[C@H]([C@H](C)C[C@@H]2CC[C@@H](OCCO)[C@H](OC)C2)CC(=O)[C@H](C)/C=C(\C)[C@@H](O)[C@@H](OC)C(=O)[C@H](C)C[C@H](C)/C=C/C=C/C=C/1C [everolimus] (first compound 0.004 µM, partner dose 0.02 µM)  93.6%
9. CO[C@H]1C[C@@H]2CC[C@@H](C)[C@@](O)(O2)C(=O)C(=O)N2CCCC[C@H]2C(=O)O[C@H]([C@H](C)C[C@@H]2CC[C@@H](OCCO)[C@H](OC)C2)CC(=O)[C@H](C)/C=C(\C)[C@@H](O)[C@@H](OC)C(=O)[C@H](C)C[C@H](C)/C=C/C=C/C=C/1C [everolimus] + COc1cc(Nc2ncc(F)c(Nc3ccc4c(n3)NC(=O)C(C)(C)O4)n2)cc(OC)c1OC [Tamatinib] (first compound 0.02 µM, partner dose 0.4 µM)  97.5%
10. CO[C@H]1C[C@@H]2CC[C@@H](C)[C@@](O)(O2)C(=O)C(=O)N2CCCC[C@H]2C(=O)O[C@H]([C@H](C)C[C@@H]2CC[C@@H](OCCO)[C@H](OC)C2)CC(=O)[C@H](C)/C=C(\C)[C@@H](O)[C@@H](OC)C(=O)[C@H](C)C[C@H](C)/C=C/C=C/C=C/1C [everolimus] + CC1(C)NC(=O)N(c2ccc([N+](=O)[O-])c(C(F)(F)F)c2)C1=O [nilutamide] (first compound 0.02 µM, partner dose 1 µM)  105%
11. Cn1c(=O)n(-c2ccc(C(C)(C)C#N)cc2)c2c3cc(-c4cnc5ccccc5c4)ccc3ncc21 + CN1CCN(c2ccc3nc(-c4c(N)c5c(F)cccc5[nH]c4=O)[nH]c3c2)CC1 [Dovitinib] (first compound 0.004 µM, partner dose 0.1 µM)  105%
12. CO[C@H]1C[C@@H]2CC[C@@H](C)[C@@](O)(O2)C(=O)C(=O)N2CCCC[C@H]2C(=O)O[C@H]([C@H](C)C[C@@H]2CC[C@@H](OCCO)[C@H](OC)C2)CC(=O)[C@H](C)/C=C(\C)[C@@H](O)[C@@H](OC)C(=O)[C@H](C)C[C@H](C)/C=C/C=C/C=C/1C [everolimus] + CC(C)(C)c1cnc(CSc2cnc(NC(=O)C3CCNCC3)s2)o1 [SNS-032] (first compound 0.02 µM, partner dose 0.01 µM)  106%
13. CO[C@H]1C[C@@H]2CC[C@@H](C)[C@@](O)(O2)C(=O)C(=O)N2CCCC[C@H]2C(=O)O[C@H]([C@H](C)C[C@@H]2CC[C@@H](OCCO)[C@H](OC)C2)CC(=O)[C@H](C)/C=C(\C)[C@@H](O)[C@@H](OC)C(=O)[C@H](C)C[C@H](C)/C=C/C=C/C=C/1C [everolimus] + Cc1nc(Nc2ncc(C(=O)Nc3c(C)cccc3Cl)s2)cc(N2CCN(CCO)CC2)n1 [dasatanib] (first compound 0.02 µM, partner dose 0.004 µM)  109%
14. CO[C@H]1C[C@@H]2CC[C@@H](C)[C@@](O)(O2)C(=O)C(=O)N2CCCC[C@H]2C(=O)O[C@H]([C@H](C)C[C@@H]2CC[C@@H](OCCO)[C@H](OC)C2)CC(=O)[C@H](C)/C=C(\C)[C@@H](O)[C@@H](OC)C(=O)[C@H](C)C[C@H](C)/C=C/C=C/C=C/1C [everolimus] + Cc1cc([N+](=O)[O-])ccc1NS(=O)(=O)c1cc(Cl)ccc1Cl [FH535] (first compound 0.02 µM, partner dose 1 µM)  113%
15. C[C@@H](Oc1cc(-c2cnn(C3CCNCC3)c2)cnc1N)c1c(Cl)ccc(F)c1Cl [Crizotinib] + CNC(=O)c1cc(Oc2ccc(NC(=O)Nc3ccc(Cl)c(C(F)(F)F)c3)cc2)ccn1 [sorafenib] (first compound 0.2 µM, partner dose 0.4 µM)  159%
16. CO[C@H]1C[C@@H]2CC[C@@H](C)[C@@](O)(O2)C(=O)C(=O)N2CCCC[C@H]2C(=O)O[C@H]([C@H](C)C[C@@H]2CC[C@@H](OCCO)[C@H](OC)C2)CC(=O)[C@H](C)/C=C(\C)[C@@H](O)[C@@H](OC)C(=O)[C@H](C)C[C@H](C)/C=C/C=C/C=C/1C [everolimus] + O=S(=O)(c1ccccc1)N(CC(F)(F)F)c1ccc(C(O)(C(F)(F)F)C(F)(F)F)cc1 [T0901317] (first compound 0.02 µM, partner dose 1.4 µM)  184%
17. CO[C@H]1C[C@@H]2CC[C@@H](C)[C@@](O)(O2)C(=O)C(=O)N2CCCC[C@H]2C(=O)O[C@H]([C@H](C)C[C@@H]2CC[C@@H](OCCO)[C@H](OC)C2)CC(=O)[C@H](C)/C=C(\C)[C@@H](O)[C@@H](OC)C(=O)[C@H](C)C[C@H](C)/C=C/C=C/C=C/1C [everolimus] + C=CCn1c(=O)c2cnc(Nc3ccc(N4CCN(C)CC4)cc3)nc2n1-c1cccc(C(C)(C)O)n1 [MK1775] (first compound 0.02 µM, partner dose 0.02 µM)  256%
18. CO[C@H]1C[C@@H]2CC[C@@H](C)[C@@](O)(O2)C(=O)C(=O)N2CCCC[C@H]2C(=O)O[C@H]([C@H](C)C[C@@H]2CC[C@@H](OCCO)[C@H](OC)C2)CC(=O)[C@H](C)/C=C(\C)[C@@H](O)[C@@H](OC)C(=O)[C@H](C)C[C@H](C)/C=C/C=C/C=C/1C [everolimus] + Nc1nc(F)nc2c1ncn2[C@@H]1O[C@H](CO)[C@@H](O)[C@@H]1O [fludarabine] (first compound 0.02 µM, partner dose 0.2 µM)  3870%
